Reference: patent US20260070974A1
No constants are given. Whether binding was seen depends on the method and setting. Some results given as binding are weak or reduced against the parent protein; the word gives no strength.

What was measured:
[1] = biological target: cynomolgus monkey Siglec-15-his protein (Acrobiosystems, Cat #: SG5-C52H6) (cynomolgus monkey); test: ELISA, coated cynomolgus monkey Siglec-15-his
[2] = biological target: cynomolgus monkey Siglec-15-his protein (Acrobiosystems, Cat #: SG5-C52H6) (cynomolgus monkey); test: ELISA on coated cynomolgus monkey Siglec-15-his, goat anti-human IgG-HRP, OD450

B1: PR301285 (antibody, human IgG1, kappa, V domains shown)
VH: QVQLQESGPGLVKPSETLSLTCTVSGGSMISYYWSWLRQPPGKGLEWIGYIYYSGNTNYNPSLKSRITIAVDTSKNQFSLKLNSVTAADTAVYYCARERELHPYYFDYWGQGTLVTVSS
VL: DIQLTQSPSFLSASVGDRVTITCRASQGIDNYLAWYQQKPGKAPKVLIYAASTLQSGVPSRFSGSGSGTEFTLTISSLQPEDFATYYCQQLNSYPLTFGGGTKVEIKR
[1]
  binding: binds
[2]
  binding: binds

B2: PR301286 (antibody, human IgG1, kappa, V domains shown)
VH: QVQLVESGGGVVQPGKSLRLSCAASGFTFSSYGMHWVRQAPGKGLEWVAVIWIDGSNRYYAASVKGRFTISRDNSKNTLYLQMNSLRAEDTAVYYCTRGYGDYAYVMDVWGQGASVTVSS
VL: DIVMTQSPLSLPVTPGEPASISCRSSQSLLPGNGYNYLDWYLQKPGQSPQLLIYLGSNRASGVPDRFSGSGSGTDFTLKISRVEAEDVGIYYCMQALQSPLTFGGGTKVEIKR
[1]
  binding: binds
[2]
  binding: binds

B3: PR301289 (antibody, human IgG1, kappa, V domains shown)
VH: QVQLVQSGAEVKKPGASVKVSCRASGYTFTSYDINWVRQATGQGLEWMGWMNPHSGDTGYAQNFQGRVTMTWNTSISTAYMELSSLRSEDTAVYYCARRRVGVYYYGMDVWGQGTTVTVSS
VL: ENVLTQSPGTLSLSPGERATLSCRASQSVSSSYFGWYQQKPGQAPRLLIYGASSRATGIPDRFSGSGSGTDFTLTISRLEPEDFAVYYCQQYGSSPITFGQGTRLEIKR
[1]
  binding: binds
[2]
  binding: binds

B4: PR300659 (antibody, human IgG1, kappa, V domains shown)
VH: QVQLVESGGGVVQPGRSLRLSCAASGFIFSSYDIYWVRQAPGKGLEWVAVIWHDGSNKYYADSVKGRFTISRDNSKNTVYLQMNSLRAEDTAVYYCARDTHSYGSRIYYDYNYGMDVWGQGTTVTVSS
VL: DIQMTQSPSSLSASVGDRVSITCRASQSISSYLNWYQQKPGKAPKLLIYAASSLQSGVPSRFSGSGSGADFTLTISSLQPEDFATYYCQQTYSPPFTFGPGTKVDIKR
[1]
  binding: binds
[2]
  binding: binds

B5: PR300670 (antibody, human IgG1, kappa, V domains shown)
VH: QVQLVESGGGVVQPGRSLRLSCVASGFTFSTYGIHWVRQAPGKGLDWVSVIWYDGSHKYYADSVQDRFTISRDNSKNTLYLQMNSLRAEDTAVYYCAREGMITMVRGVIIDYQYHGMDVWGQGTTVTVSS
VL: DIQMTQSPSTLSASVGDRVTITCRASQSIGRRLAWYQQKPGKAPKLLIYKASSLESGVPSRFSGSGSGTEFTLTISSPQPDDFATYYCQQYHSYSYTFGQGTKLEIKR
[1]
  binding: binds
[2]
  binding: binds
